The record followed here is patent publication US7235380.

Chains of the proteins cited; added tags and fusions are not shown. Residues count along the entry.
UniProt P13726, residues 33-295: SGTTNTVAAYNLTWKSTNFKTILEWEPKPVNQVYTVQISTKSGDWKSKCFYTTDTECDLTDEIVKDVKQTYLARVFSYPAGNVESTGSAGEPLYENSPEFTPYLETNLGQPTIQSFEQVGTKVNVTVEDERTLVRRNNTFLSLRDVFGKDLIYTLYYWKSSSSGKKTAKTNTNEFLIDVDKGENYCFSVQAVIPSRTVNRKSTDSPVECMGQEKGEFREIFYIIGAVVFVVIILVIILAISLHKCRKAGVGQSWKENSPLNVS

Results are given in words; binding and its absence hold for the method and conditions named. Some entries that bind do so weakly or less than the wild type.

Assay [1] addresses human tissue factor (human) (UniProt P13726). Nature of the assay: ELISA, TF immobilized on a microtiter plate, COS supernatant, anti-human kappa-HRP detection. A general note: An ELISA detects its analyte on a solid surface through an enzyme-linked reagent.
Assay [2] shares this target. Nature of the assay: direct and competition ELISA on plate-coated TF.
For assay [3] the target is unchanged. The experiment in a line: ELISA on plate-coated TF (FIG. 3).
Assay [4] has the same target. Nature of the assay: ELISA on plate-coated TF, COS supernatants.

B1: CDR-grafted antibody TF8HCDR1×TF8LCDR1 (antibody, human IgG4, V domains shown)
VH: QVQLVQSGGGVVQPGRLLRLSCKASGFNIKDYYMHWVRQAPGKGLEWIGLIDPENGNTIYDPKFQGRFSISADTSKNTAFLQMDSLRPEDTAVYYCARDNSYYFDYWGQGTPVTVSS
VL: DIQMTQSPSSLSASVGDRVTITCKASQDIRKYLNWYQQKPWKAPKTLIYYATSLADGVPSRFSGSGSGTDYTFTISSLQPEDIATYYCLQHGESPYTFGQGTKLEITR
As to B1, the binding entry in assay [1], in assay [2] and in assay [3] was “binds” throughout.

B2: TF8HCDR20 in combination with TF8LCDR1 (antibody, human IgG4, V domains shown)
VH: QVQLVESGGGVVQPGRSLRLSCKASGFNIKDYYMHWVRQAPGKGLEWIGLIDPENGNTIYDPKFQGRFTISADNSKNTLFLQMDSLRPEDTAVYYCARDNSYYFDYWGQGTPVTVSS
VL: DIQMTQSPSSLSASVGDRVTITCKASQDIRKYLNWYQQKPWKAPKTLIYYATSLADGVPSRFSGSGSGTDYTFTISSLQPEDIATYYCLQHGESPYTFGQGTKLEITR
Take B2: in assay [4], the binding result is recorded as “binds”.
